The target of the assay is T1, Dual-specificity phosphatase 6 (human (endogenous in human OS cells)) (UniProt Q16828).
T1 sequence: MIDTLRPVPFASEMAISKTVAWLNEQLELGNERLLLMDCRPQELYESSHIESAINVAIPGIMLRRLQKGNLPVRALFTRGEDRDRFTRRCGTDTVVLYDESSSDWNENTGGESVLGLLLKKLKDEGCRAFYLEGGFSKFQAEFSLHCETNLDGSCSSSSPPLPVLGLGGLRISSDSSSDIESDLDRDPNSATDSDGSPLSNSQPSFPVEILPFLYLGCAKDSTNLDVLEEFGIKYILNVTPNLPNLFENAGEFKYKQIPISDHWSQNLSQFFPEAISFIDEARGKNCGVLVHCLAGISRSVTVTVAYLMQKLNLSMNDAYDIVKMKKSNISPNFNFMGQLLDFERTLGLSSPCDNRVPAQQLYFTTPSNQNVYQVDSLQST
Nature of the assay: co-IP; whole-cell extracts of OS cells incubated with the appropriate antibodies plus Protein A/G beads overnight; beads washed five times; SDS-PAGE and western blot; which protein was precipitated is not told.

Data on 1 molecule can be found in article PMC6948331.

Results are given in words; binding and its absence hold for the method and conditions named. In cells and extracts the contact can be indirect. Some results given as binding are weak or reduced against the parent protein; the word gives no strength.

B1: Tripartite Motif Containing 11 (protein, UniProt Q96F44-1 1-468)
chain: MAAPDLSTNLQEEATCAICLDYFTDPVMTDCGHNFCRECIRRCWGQPEGPYACPECRELSPQRNLRPNRPLAKMAEMARRLHPPSPVPQGVCPAHREPLAAFCGDELRLLCAACERSGEHWAHRVRPLQDAAEDLKAKLEKSLEHLRKQMQDALLFQAQADETCVLWQKMVESQRQNVLGEFERLRRLLAEEEQQLLQRLEEEELEVLPRLREGAAHLGQQSAHLAELIAELEGRCQLPALGLLQDIKDALRRVQDVKLQPPEVVPMELRTVCRVPGLVETLRRFRGDVTLDPDTANPELILSEDRRSVQRGDLRQALPDSPERFDPGPCVLGQERFTSGRHYWEVEVGDRTSWALGVCRENVNRKEKGELSAGNGFWILVFLGSYYNSSERALAPLRDPPRRVGIFLDYEAGHLSFYSATDGSLLFIFPEIPFSGTLRPLFSPLSSSPTPMTICRPKGGSGDTLAPQ
As for B1, the binding entry is on record as “binds”.
